Counter-ions that a name gives are not always drawn. The list shows a part of the results. Hit calls seldom repeat between salt and free forms of one compound.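 Kinases, fused to nanoluciferase, were expressed in K562 cells; luminescence was measured every 4 h from 2 to 18 h as percent of control (DMSO = 100%, positive control = 0%). A time point is decreased if signal falls significantly (2 sigma). Hits were called by the authors by a rule that is not shown; the count of time points alone does not decide it.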
Columns and labels:
Experiment in all cases: number of time points (of 5) at which kinase-Nluc abundance scored as decreased, DMSO-normalised (count); higher = more persistent destabilization
Conditions in all cases: K562; 2-18 h
[1] = molecular target: FLT3 (UniProt P36888)
[2] = molecular target: FYN (UniProt P06241)
[3] = molecular target: GSK3A (UniProt P49840)
[4] = molecular target: HER2 (UniProt P04626)
[5] = molecular target: INSRR (UniProt P14616)
[6] = molecular target: IRAK3 (UniProt Q9Y616)
[7] = molecular target: JAK1 (UniProt P23458)
[8] = molecular target: LCK (UniProt P06239)
[9] = molecular target: LIMK1 (UniProt P53667)
[10] = molecular target: LIMK2 (UniProt P53671)
[11] = molecular target: LMTK2 (UniProt Q8IWU2)
[12] = molecular target: LYN (UniProt P07948)
[13] = molecular target: MAP2K1 (UniProt Q02750)
[14] = molecular target: MAP2K2 (UniProt P36507)
[15] = molecular target: MAP4K2 (UniProt Q12851)
[16] = molecular target: MAPK1 (UniProt P28482)
[17] = molecular target: MAPK4 (UniProt P31152)
[18] = molecular target: MAPKAPK2 (UniProt P49137)
[19] = molecular target: MKNK1 (UniProt Q9BUB5)
[20] = molecular target: NTRK2 (UniProt Q16620)

Protein sequences, listed by entry. Tags and fused reporters are not part of them. Lines headed by an entry give the natural chain unless they say otherwise; changes in a name come on top.
UniProt P36888, whole entry: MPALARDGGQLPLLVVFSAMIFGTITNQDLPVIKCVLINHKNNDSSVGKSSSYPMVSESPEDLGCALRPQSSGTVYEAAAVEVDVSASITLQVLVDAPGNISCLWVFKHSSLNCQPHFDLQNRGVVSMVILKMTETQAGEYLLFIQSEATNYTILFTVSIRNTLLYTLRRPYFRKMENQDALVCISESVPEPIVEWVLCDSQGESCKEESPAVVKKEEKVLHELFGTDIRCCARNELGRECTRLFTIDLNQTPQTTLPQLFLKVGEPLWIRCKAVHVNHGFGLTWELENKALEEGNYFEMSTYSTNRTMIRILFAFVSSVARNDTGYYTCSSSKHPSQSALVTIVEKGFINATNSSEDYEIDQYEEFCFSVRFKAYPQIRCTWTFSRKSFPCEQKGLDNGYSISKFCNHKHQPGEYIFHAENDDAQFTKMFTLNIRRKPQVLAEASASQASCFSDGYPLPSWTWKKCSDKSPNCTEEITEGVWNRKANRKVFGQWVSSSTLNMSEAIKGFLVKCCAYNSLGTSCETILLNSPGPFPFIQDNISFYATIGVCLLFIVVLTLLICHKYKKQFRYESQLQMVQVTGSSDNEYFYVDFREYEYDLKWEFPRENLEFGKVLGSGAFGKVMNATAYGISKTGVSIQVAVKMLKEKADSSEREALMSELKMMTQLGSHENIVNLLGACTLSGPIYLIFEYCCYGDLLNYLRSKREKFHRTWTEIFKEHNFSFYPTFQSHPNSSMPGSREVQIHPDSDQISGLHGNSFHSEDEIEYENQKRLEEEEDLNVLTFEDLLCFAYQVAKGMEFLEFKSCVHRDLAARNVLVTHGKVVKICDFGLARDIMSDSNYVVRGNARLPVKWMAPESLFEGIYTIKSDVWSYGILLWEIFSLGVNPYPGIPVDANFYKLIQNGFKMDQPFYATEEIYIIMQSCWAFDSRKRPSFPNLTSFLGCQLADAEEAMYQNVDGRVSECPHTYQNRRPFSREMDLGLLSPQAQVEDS
UniProt P49840: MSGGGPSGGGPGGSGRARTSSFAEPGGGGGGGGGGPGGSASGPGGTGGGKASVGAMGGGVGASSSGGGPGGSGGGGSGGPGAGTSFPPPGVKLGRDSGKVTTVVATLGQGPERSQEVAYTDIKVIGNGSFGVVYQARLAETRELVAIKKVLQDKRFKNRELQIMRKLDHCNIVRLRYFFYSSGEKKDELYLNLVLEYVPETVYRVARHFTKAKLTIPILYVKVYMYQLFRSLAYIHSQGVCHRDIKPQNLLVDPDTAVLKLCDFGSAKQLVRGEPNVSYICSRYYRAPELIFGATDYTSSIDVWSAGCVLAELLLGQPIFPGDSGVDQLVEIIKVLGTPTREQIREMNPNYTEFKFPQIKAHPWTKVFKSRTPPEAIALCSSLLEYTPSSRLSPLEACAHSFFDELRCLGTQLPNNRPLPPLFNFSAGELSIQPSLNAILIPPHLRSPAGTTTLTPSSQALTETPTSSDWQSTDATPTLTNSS
UniProt P23458: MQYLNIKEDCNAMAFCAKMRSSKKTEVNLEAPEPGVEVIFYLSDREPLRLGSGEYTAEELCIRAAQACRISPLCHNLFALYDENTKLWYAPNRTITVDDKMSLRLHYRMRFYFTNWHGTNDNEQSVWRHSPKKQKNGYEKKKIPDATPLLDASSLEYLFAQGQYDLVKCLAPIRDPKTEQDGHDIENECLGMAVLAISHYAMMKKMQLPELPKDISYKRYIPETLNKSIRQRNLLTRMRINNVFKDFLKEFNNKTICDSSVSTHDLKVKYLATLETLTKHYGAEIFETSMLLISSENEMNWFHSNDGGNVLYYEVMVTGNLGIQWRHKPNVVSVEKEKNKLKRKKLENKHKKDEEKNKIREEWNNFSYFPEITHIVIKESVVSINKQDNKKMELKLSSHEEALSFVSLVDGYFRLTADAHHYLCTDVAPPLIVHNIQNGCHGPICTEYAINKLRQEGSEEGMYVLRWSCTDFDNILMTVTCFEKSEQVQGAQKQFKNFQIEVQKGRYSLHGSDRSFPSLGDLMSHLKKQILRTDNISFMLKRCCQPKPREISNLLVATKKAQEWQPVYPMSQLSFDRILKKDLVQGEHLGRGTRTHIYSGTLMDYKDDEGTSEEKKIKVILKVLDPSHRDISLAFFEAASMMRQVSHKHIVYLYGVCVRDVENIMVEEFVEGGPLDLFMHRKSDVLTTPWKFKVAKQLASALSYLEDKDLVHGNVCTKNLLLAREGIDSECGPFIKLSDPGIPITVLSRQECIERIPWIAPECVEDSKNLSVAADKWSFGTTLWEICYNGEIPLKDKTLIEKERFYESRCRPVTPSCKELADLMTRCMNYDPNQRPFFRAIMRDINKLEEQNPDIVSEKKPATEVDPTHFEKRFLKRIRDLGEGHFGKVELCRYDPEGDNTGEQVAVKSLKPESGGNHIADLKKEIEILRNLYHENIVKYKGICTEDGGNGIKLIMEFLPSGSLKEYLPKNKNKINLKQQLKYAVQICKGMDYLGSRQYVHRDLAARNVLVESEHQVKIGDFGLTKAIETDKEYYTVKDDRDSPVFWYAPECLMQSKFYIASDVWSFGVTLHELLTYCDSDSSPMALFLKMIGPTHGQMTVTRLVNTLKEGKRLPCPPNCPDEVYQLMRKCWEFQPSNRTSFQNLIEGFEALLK
UniProt P53667: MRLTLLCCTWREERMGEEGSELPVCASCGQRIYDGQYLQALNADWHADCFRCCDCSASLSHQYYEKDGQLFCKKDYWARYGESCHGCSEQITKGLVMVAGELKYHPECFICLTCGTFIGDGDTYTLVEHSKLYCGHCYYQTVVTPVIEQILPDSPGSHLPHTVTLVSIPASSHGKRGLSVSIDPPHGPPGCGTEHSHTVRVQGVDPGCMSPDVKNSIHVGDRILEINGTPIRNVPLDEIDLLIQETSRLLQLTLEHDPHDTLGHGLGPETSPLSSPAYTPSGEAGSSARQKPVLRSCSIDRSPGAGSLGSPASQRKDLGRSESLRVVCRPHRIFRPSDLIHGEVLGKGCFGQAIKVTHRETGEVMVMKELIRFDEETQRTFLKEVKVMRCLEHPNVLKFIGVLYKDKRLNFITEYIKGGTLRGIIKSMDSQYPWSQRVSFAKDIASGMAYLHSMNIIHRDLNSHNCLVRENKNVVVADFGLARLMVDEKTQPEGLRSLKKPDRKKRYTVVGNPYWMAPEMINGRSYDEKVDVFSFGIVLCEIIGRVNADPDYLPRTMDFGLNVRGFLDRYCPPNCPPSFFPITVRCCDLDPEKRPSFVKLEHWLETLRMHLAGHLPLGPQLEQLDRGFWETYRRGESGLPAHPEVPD
UniProt P53671: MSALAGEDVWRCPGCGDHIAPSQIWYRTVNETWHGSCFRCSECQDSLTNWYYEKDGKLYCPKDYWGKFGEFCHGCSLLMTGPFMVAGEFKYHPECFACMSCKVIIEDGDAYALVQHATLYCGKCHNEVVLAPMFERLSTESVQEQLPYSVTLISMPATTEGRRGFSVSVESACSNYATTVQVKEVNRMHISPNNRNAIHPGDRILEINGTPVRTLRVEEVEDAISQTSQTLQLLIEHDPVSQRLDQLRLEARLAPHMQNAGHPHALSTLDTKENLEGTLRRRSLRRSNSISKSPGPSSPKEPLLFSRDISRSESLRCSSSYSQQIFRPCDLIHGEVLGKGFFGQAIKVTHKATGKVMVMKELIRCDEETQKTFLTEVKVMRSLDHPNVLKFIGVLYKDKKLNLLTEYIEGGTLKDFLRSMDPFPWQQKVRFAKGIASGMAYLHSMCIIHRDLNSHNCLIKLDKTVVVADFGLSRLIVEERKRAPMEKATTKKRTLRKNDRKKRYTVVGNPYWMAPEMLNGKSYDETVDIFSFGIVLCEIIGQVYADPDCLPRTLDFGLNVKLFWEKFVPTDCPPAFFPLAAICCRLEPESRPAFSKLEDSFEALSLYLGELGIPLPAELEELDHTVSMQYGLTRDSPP
UniProt P07948: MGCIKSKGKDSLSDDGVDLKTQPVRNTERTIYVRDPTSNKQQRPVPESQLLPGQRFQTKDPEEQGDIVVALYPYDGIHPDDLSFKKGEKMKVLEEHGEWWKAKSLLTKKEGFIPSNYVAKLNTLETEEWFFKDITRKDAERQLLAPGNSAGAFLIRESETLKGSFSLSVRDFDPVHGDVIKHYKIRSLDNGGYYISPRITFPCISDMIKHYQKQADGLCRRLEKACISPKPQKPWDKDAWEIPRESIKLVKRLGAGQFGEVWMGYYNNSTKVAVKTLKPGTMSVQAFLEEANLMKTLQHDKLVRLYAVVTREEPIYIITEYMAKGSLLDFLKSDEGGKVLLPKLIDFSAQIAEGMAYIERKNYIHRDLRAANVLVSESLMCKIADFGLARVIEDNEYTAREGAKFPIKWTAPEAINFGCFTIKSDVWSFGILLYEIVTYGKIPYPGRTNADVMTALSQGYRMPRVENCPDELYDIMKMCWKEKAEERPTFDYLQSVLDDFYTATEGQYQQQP
UniProt P28482, whole entry: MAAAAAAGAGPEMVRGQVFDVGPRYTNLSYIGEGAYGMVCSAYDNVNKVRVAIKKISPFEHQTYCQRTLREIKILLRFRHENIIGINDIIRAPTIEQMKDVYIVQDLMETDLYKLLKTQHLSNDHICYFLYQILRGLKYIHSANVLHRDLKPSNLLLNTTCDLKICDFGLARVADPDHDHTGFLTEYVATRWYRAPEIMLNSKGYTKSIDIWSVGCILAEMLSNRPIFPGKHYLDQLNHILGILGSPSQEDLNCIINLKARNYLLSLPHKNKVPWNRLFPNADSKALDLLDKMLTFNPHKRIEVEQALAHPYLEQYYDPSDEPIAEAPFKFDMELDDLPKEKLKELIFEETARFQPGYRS
UniProt P49137, whole entry, looked up: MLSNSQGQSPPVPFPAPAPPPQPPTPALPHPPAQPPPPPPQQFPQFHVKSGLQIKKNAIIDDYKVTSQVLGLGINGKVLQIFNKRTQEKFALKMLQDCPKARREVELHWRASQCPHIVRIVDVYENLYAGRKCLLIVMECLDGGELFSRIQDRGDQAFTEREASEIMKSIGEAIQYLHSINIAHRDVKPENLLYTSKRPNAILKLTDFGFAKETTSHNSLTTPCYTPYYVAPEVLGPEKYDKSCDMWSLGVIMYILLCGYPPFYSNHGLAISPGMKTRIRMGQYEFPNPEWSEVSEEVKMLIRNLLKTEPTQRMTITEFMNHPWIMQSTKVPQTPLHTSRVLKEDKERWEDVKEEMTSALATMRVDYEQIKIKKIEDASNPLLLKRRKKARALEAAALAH
UniProt Q9BUB5: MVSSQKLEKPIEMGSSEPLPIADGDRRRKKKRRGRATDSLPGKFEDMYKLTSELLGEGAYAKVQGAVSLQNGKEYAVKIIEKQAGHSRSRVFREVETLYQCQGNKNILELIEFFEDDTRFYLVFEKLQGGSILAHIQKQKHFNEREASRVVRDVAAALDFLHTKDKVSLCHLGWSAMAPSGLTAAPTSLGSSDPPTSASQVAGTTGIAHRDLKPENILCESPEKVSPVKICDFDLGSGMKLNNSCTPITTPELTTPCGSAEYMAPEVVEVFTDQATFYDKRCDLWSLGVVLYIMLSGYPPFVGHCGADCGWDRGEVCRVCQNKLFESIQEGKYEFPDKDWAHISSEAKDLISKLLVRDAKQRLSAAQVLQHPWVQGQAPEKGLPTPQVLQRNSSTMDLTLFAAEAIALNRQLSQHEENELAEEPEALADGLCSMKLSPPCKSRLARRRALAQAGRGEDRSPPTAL
UniProt Q16620, whole entry, looked up: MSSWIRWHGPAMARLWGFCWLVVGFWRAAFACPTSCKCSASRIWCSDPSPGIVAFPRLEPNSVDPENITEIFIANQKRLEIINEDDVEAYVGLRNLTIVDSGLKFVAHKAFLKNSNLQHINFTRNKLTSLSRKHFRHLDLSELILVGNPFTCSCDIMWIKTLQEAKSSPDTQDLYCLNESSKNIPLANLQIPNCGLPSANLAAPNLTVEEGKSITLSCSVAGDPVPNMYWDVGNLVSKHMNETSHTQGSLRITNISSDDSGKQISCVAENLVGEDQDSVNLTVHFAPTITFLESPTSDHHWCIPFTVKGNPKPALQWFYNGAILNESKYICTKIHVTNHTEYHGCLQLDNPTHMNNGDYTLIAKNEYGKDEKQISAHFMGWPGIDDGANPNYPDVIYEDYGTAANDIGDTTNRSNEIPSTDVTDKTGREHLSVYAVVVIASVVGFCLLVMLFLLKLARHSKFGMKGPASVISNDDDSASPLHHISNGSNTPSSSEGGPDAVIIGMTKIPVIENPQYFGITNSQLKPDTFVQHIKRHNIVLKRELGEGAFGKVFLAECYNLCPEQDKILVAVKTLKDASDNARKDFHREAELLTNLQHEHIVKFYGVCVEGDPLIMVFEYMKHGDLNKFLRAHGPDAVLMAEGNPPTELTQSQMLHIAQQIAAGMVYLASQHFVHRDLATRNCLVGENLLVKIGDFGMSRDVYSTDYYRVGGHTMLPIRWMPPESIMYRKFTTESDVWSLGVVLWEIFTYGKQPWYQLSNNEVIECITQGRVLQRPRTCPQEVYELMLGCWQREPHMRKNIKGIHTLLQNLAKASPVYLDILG

Measured: number of time points

Nc1nccc(-c2c(-c3ccc(F)cc3)ncn2C2CCCCC2)n1 (10 µM)
2: [19]
0: all other assays above

CCn1c(-c2nonc2N)nc2c(C#CC(C)(C)O)ncc(OC[C@H]3CCCNC3)c21 (10 µM)
0: all assays above

c1nc2c(NC3CCCCC3)nc(Nc3ccc(N4CCOCC4)cc3)nc2[nH]1 [Reversine] (10 µM)
4: [9]
0: all other assays above

Cc1cc(C)cc(NC(N)=Nc2ccccc2C(F)(F)F)c1 (10 µM)
0: all assays above

COC(=O)/C=C/c1ccccc1 [Methyl cinnamate] (10 µM)
0: all assays above

CO[C@H]1C[C@@H]2CC[C@@H](C)[C@@](O)(O2)C(=O)C(=O)N2CCCC[C@H]2C(=O)O[C@H]([C@H](C)C[C@@H]2CC[C@@H](OCCO)[C@H](OC)C2)CC(=O)[C@H](C)/C=C(\C)[C@@H](O)[C@@H](OC)C(=O)[C@H](C)C[C@H](C)/C=C/C=C/C=C/1C [Everolimus] (10 µM)
0: all assays above

Cc1cc(C(=O)Nc2nc3cccc(Cl)c3n2[C@@H]2CCCCN(C(=O)/C=C/CN(C)C)C2)ccn1 [Nazartinib] (10 µM)
1: [4]
0: all other assays above

C=CC(=O)N1CCC[C@@H](n2nc(-c3ccc(Oc4ccccc4)cc3)c3c(N)n[nH]c(=O)c32)C1 [BTK inhibitor 17] (10 µM)
1: [19]
0: all other assays above

CCCCCc1ccc(/C=C/[C@H](O)[C@@H](CO)NC)cc1 [SK1-I (hydrochloride)] (10 µM)
0: all assays above

Cc1cc(CSc2ccccc2C(=O)NCCNc2ccc(C(F)(F)F)cc2[N+](=O)[O-])on1 (10 µM)
0: all assays above

Nc1nc2c(nc(Br)n2[C@@H]2O[C@@H]3COP(=O)(O)O[C@H]3[C@H]2O)c(=O)[nH]1 [8-Bromo-cGMP (sodium)] (10 µM)
0: all assays above

COc1cc2ncnc(Oc3ccc(CC(=O)Nc4cnn(C(C)C)c4)cc3)c2cc1OC (10 µM)
2: [9] | [10]
0: all other assays above

C=CC(=O)Nc1cccc(Oc2nc(Nc3ccc(N4CCN(C)CC4)c(F)c3)nc3[nH]ccc23)c1 [Avitinib (maleate)] (2.5 µM)
0: all assays above

O=C(c1cccc(Cl)c1F)N1CCN(Cc2cccc(Nc3nccs3)n2)CC1 (2.5 µM)
1: [11]
0: all other assays above

CCN(CC)CCOc1ccc(Nc2nc(-c3ccccc3NC(=O)CCN3CCN(C)CC3)nc3ccccc23)cc1 (2.5 µM)
0: all assays above

Cc1ccc(NC(=O)Nc2cc(C(F)(F)F)ccc2F)cc1Nc1ccc2c(c1)NC(=O)/C2=C\c1ccc[nH]1 (2.5 µM)
1: [20]
0: all other assays above

CCCn1/c(=N/C(=O)c2cccc(C(N)=O)c2)[nH]c2ccccc21 [Takinib] (10 µM)
0: all assays above

COc1cc2nccc(Oc3ccc(NC(=O)c4cn(C(C)C)c(=O)n(-c5ccc(F)cc5)c4=O)cc3F)c2cc1OC (0.5 µM)
2: [5]
1: [2] | [4]
0: all other assays above

CC1=C(C(=O)Nc2cc3cn[nH]c3cc2F)C(c2ccc(C(F)(F)F)cc2)CC(=O)N1 (stereo not given) (10 µM)
0: all assays above

CC1CN(CC2CCN(Cc3ccccc3)CC2)C(=O)N(c2cccc(C(=N)N)c2)C1 (stereo not given) (10 µM)
0: all assays above

NC1(C(=O)NCCCn2cc(-c3ccc(OC(F)(F)F)cc3)c3cc(CN4CCN(Cc5c(Cl)cccc5Cl)CC4)ccc32)CCNCC1 (2.5 µM)
2: [12]
1: [2]
0: all other assays above

Cn1cc(-c2cc(Oc3cc(F)c(NC(=O)C4(C(=O)Nc5ccccc5)CC4)cc3F)ccn2)cn1 (2.5 µM)
0: all assays above

N#Cc1ccc2ncnc(NCCc3ccccc3)c2c1 [Senexin A] (10 µM)
0: all assays above

COc1cc(-c2oc3cc(O)cc(O)c3c(=O)c2O)ccc1O [Isorhamnetin] (10 µM)
0: all assays above

COc1cc(N2CCC(N3CCN(C)CC3)CC2)ccc1Nc1ncc(Cl)c(-c2c[nH]c3ccccc23)n1 (2.5 µM)
0: all assays above

Cc1c(C)c(NCC(=O)N(C)C2CCN(Cc3ccc(C(N)=O)cc3)CC2)c(C)c(C)c1N (10 µM)
0: all assays above

Ordered by molar mass (falling): part of the list above
O=C(c1cccc(Cl)c1F)N1CCN(Cc2cccc(Nc3nccs3)n2)CC1 (2.5 µM)
1: [11]
0: all other assays above

CCCCCc1ccc(/C=C/[C@H](O)[C@@H](CO)NC)cc1 [SK1-I (hydrochloride)] (10 µM)
0: all assays above

COC(=O)/C=C/c1ccccc1 [Methyl cinnamate] (10 µM)
0: all assays above

Going on with the list.

COc1cc(-c2cc(-c3ccc(N4CCNCC4)cc3)cnc2C)cc(OC)c1OC (10 µM)
0: all assays above

C=CC(=O)N1CCN(C(=O)CNc2cc(I)c(Cl)cc2O)CC1 [K-Ras(G12C) inhibitor 12] (10 µM)
0: all assays above

CCNC(=O)C#Cc1ccc2c(C(=Nc3ccc(CN(C)C)cc3)c3ccccc3)c(O)[nH]c2c1 (2.5 µM)
3: [4]
0: all other assays above

O=c1[nH]ccc2nc(-c3ccc(CN4CCC(c5nc(-c6ccccn6)n[nH]5)CC4)cc3)c(-c3ccccc3)cc12 (10 µM)
0: all assays above

O=C(NCCN1CCOCC1)Nc1nc2ccc(Sc3nnc4ccc(-c5ccc(F)cc5)nn34)cc2s1 (10 µM)
0: all assays above

CN1CCC(CNc2ccc3ncc(-c4cccc(OC(F)(F)F)c4)n3n2)CC1 (2.5 µM)
0: all assays above

NS(=O)(=O)c1ccc(Nc2nc(-c3cccc(-c4ccccc4)c3)c3[nH]cnc3n2)cc1 (10 µM)
0: all assays above

11 entries already listed, ordered by count of non-hydrogen atoms, rising:
N#Cc1ccc2ncnc(NCCc3ccccc3)c2c1 [Senexin A] (10 µM)
0: all assays above

COc1cc(-c2oc3cc(O)cc(O)c3c(=O)c2O)ccc1O [Isorhamnetin] (10 µM)
0: all assays above

CN1CCC(CNc2ccc3ncc(-c4cccc(OC(F)(F)F)c4)n3n2)CC1 (2.5 µM)
0: all assays above

CC1=C(C(=O)Nc2cc3cn[nH]c3cc2F)C(c2ccc(C(F)(F)F)cc2)CC(=O)N1 (stereo not given) (10 µM)
0: all assays above

NS(=O)(=O)c1ccc(Nc2nc(-c3cccc(-c4ccccc4)c3)c3[nH]cnc3n2)cc1 (10 µM)
0: all assays above

Cc1c(C)c(NCC(=O)N(C)C2CCN(Cc3ccc(C(N)=O)cc3)CC2)c(C)c(C)c1N (10 µM)
0: all assays above

CCNC(=O)C#Cc1ccc2c(C(=Nc3ccc(CN(C)C)cc3)c3ccccc3)c(O)[nH]c2c1 (2.5 µM)
3: [4]
0: all other assays above

Cn1cc(-c2cc(Oc3cc(F)c(NC(=O)C4(C(=O)Nc5ccccc5)CC4)cc3F)ccn2)cn1 (2.5 µM)
0: all assays above

COc1cc(N2CCC(N3CCN(C)CC3)CC2)ccc1Nc1ncc(Cl)c(-c2c[nH]c3ccccc23)n1 (2.5 µM)
0: all assays above

O=c1[nH]ccc2nc(-c3ccc(CN4CCC(c5nc(-c6ccccn6)n[nH]5)CC4)cc3)c(-c3ccccc3)cc12 (10 µM)
0: all assays above

NC1(C(=O)NCCCn2cc(-c3ccc(OC(F)(F)F)cc3)c3cc(CN4CCN(Cc5c(Cl)cccc5Cl)CC4)ccc32)CCNCC1 (2.5 µM)
2: [12]
1: [2]
0: all other assays above

Further entries follow.

C[C@@H]1O[C@@H](Oc2cc(O)c3c(=O)c(O[C@@H]4O[C@@H](C)[C@H](O)[C@@H](O)[C@H]4O)c(-c4ccc(O)cc4)oc3c2)[C@H](O)[C@H](O)[C@H]1O [Kaempferitrin] (10 µM)
0: all assays above

CN1CCN(c2ccc(Nc3ncc4cc(C#N)c(=O)n(C5CCCC5)c4n3)cc2)CC1 (10 µM)
0: all assays above

O=C1NC(=O)/C(=C\c2c[nH]c(=O)c(-c3ccc(N4CCNCC4)nc3)c2)S1 [Protein kinase inhibitors 1 hydrochloride] (10 µM)
0: all assays above

Cc1cc(C(=O)NOCCO)c(Nc2ccc(I)cc2F)n(C)c1=O (10 µM)
1: [5]
0: all other assays above

Cn1ncc(NC(=O)c2nc(-c3c(F)cccc3F)sc2N)c1N1CC[C@@H](N)[C@H](F)CC1 (10 µM)
0: all assays above

O=c1cc(-c2ccccc2)oc2cc(O[C@@H]3O[C@H](CO[C@@H]4O[C@H](CO)[C@@H](O)[C@H](O)[C@H]4O)[C@@H](O)[C@H](O)[C@H]3O)c(O)c(O)c12 [Oroxin B] (10 µM)
0: all assays above

C[C@H]1O[C@@H](O[C@H]2CC[C@@]3(C)[C@@H](CC[C@]4(C)[C@@H]3C=C[C@]35OC[C@@]6(CCC(C)(C)C[C@H]63)[C@H](O)C[C@]54C)[C@]2(C)CO)[C@H](O)[C@@H](O[C@@H]2O[C@H](CO)[C@@H](O)[C@H](O)[C@H]2O)[C@H]1O [Saikosaponin D] (2.5 µM)
1: [10]
0: all other assays above

C[C@@H](Nc1ncnc2[nH]c(-c3ccc(O)cc3)cc12)c1ccccc1 (2.5 µM)
0: all assays above

CC(C)n1c([C@H](C)Nc2ncnc(N)c2C#N)cc2cccc(-c3ccc(=O)n(C)c3)c2c1=O (10 µM)
0: all assays above

Cc1cc(Nc2cc(N3CCN(C)CC3)nc(Nc3ccc([N+](=O)[O-])cc3)n2)n[nH]1 (2.5 µM)
0: all assays above

CN(C)c1ccc(-c2nc3ncc(Cl)c(N4CCN(CC(=O)Nc5nccs5)CC4)c3[nH]2)cc1 (2 µM)
2: [10]
0: all other assays above

CNC(=O)CNc1cnc2ccc(-c3ccc(OC)c(OC)c3)cc2n1 (10 µM)
0: all assays above

Cc1cc(C(=O)NC(C)(C)C)cc(C#Cc2ccc3c4c(oc3c2)C(C)(C)c2cc(NS(C)(=O)=O)ccc2C4=O)n1 (10 µM)
2: [2]
3: [4]
1: [9]
0: all other assays above

N#C/C(=C\c1ccc(O)c(O)c1)C(=O)O [Tyrphostin AG30] (10 µM)
0: all assays above
